In patent publication US7135320:
Results are given in words; binding and its absence hold for the method and conditions named. Binding seen in cells or lysates may run through a third protein. Some entries that bind do so weakly or less than the wild type.

The chains behind the UniProt entries cited, without tags or fusion partners.
UniProt Q60631: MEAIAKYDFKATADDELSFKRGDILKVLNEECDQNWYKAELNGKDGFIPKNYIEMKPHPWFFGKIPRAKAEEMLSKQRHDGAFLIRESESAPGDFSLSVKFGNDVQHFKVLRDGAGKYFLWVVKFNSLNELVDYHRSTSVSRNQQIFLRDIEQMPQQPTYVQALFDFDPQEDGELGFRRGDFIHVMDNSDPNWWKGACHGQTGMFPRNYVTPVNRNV

Columns and labels:
Sos1 [1] = target: Sos1 (UniProt Q62245); experiment: co-immunoprecipitation from NIH-3T3 lysates, immunoblotting
Sos1 [2] = target: Sos1 (UniProt Q62245); experiment: co-immunoprecipitation and far-Western blotting

Substance: Grb2 (from UniProt Q60631 1-217)
- binding (Sos1 [1]): binds
- binding (Sos1 [2]): binds
